The source of these data is article PMC5594916.

Sequences of proteins named here, by UniProt entry; tags and fusion partners are left off.
UniProt P09651: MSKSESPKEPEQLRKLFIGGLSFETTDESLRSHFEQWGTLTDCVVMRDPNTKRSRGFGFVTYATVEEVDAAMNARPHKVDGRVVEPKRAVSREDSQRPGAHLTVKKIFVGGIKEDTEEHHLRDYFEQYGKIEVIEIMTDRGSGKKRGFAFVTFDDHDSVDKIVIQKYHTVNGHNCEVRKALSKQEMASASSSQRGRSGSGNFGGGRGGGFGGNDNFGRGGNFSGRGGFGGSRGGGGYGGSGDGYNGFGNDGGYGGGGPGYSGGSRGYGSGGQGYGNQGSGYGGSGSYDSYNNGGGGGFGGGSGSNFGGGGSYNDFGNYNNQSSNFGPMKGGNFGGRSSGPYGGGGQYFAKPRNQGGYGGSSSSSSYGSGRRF

No constants are given. Whether binding was seen depends on the method and setting. Binding seen in cells or lysates may run through a third protein. Some results given as binding are weak or reduced against the parent protein; the word gives no strength.

The target of this test is hnRNPA1 (human (endogenous in HeyA8 and HeyA8-MDR)) (UniProt P09651). The test is described as follows: co-IP; HeyA8 and HeyA8-MDR cells lysed, lysates incubated with hnRNPA1 antibody, then hnRNPA1 Pull-down and Detection Kit (Thermo Scientific); the legend calls it a pull-down assay.

B1: Drosha (protein, UniProt Q9NRR4 1-1374)
chain: MMQGNTCHRMSFHPGRGCPRGRGGHGARPSAPSFRPQNLRLLHPQQPPVQYQYEPPSAPSTTFSNSPAPNFLPPRPDFVPFPPPMPPSAQGPLPPCPIRPPFPNHQMRHPFPVPPCFPPMPPPMPCPNNPPVPGAPPGQGTFPFMMPPPSMPHPPPPPVMPQQVNYQYPPGYSHHNFPPPSFNSFQNNPSSFLPSANNSSSPHFRHLPPYPLPKAPSERRSPERLKHYDDHRHRDHSHGRGERHRSLDRRERGRSPDRRRQDSRYRSDYDRGRTPSRHRSYERSRERERERHRHRDNRRSPSLERSYKKEYKRSGRSYGLSVVPEPAGCTPELPGEIIKNTDSWAPPLEIVNHRSPSREKKRARWEEEKDRWSDNQSSGKDKNYTSIKEKEPEETMPDKNEEEEEELLKPVWIRCTHSENYYSSDPMDQVGDSTVVGTSRLRDLYDKFEEELGSRQEKAKAARPPWEPPKTKLDEDLESSSESECESDEDSTCSSSSDSEVFDVIAEIKRKKAHPDRLHDELWYNDPGQMNDGPLCKCSAKARRTGIRHSIYPGEEAIKPCRPMTNNAGRLFHYRITVSPPTNFLTDRPTVIEYDDHEYIFEGFSMFAHAPLTNIPLCKVIRFNIDYTIHFIEEMMPENFCVKGLELFSLFLFRDILELYDWNLKGPLFEDSPPCCPRFHFMPRFVRFLPDGGKEVLSMHQILLYLLRCSKALVPEEEIANMLQWEELEWQKYAEECKGMIVTNPGTKPSSVRIDQLDREQFNPDVITFPIIVHFGIRPAQLSYAGDPQYQKLWKSYVKLRHLLANSPKVKQTDKQKLAQREEALQKIRQKNTMRREVTVELSSQGFWKTGIRSDVCQHAMMLPVLTHHIRYHQCLMHLDKLIGYTFQDRCLLQLAMTHPSHHLNFGMNPDHARNSLSNCGIRQPKYGDRKVHHMHMRKKGINTLINIMSRLGQDDPTPSRINHNERLEFLGDAVVEFLTSVHLYYLFPSLEEGGLATYRTAIVQNQHLAMLAKKLELDRFMLYAHGPDLCRESDLRHAMANCFEALIGAVYLEGSLEEAKQLFGRLLFNDPDLREVWLNYPLHPLQLQEPNTDRQLIETSPVLQKLTEFEEAIGVIFTHVRLLARAFTLRTVGFNHLTLGHNQRMEFLGDSIMQLVATEYLFIHFPDHHEGHLTLLRSSLVNNRTQAKVAEELGMQEYAITNDKTKRPVALRTKTLADLLESFIAALYIDKDLEYVHTFMNVCFFPRLKEFILNQDWNDPKSQLQQCCLTLRTEGKEPDIPLYKTLQTVGPSHARTYTVAVYFKGERIGCGKGPSIQQAEMGAAMDALEKYNFPQMAHQKRFIERKYRQELKEMRWEREHQEREPDETEDIKK
For B1, the binding entry is “binds”.
